The values that follow come from article PMC1906764.

The target of test [1] is aspartylglucosaminidase (AGA), endogenous in PC12 cells (rat (endogenous in PC12)) (UniProt P30919). In words: SEC; solubilised and filtrated 10 000 g pellet of PC12 postnuclear supernatant; Superdex 75 column in PBS at room temperature, 0.25 ml/min (the results name Superose 6HR); PPT1 and AGA enzyme activities measured in the fractions.
In test [2] the target is T1, recombinant PPT1 purified from stably transfected CHO cells, P50897.
T1 chain: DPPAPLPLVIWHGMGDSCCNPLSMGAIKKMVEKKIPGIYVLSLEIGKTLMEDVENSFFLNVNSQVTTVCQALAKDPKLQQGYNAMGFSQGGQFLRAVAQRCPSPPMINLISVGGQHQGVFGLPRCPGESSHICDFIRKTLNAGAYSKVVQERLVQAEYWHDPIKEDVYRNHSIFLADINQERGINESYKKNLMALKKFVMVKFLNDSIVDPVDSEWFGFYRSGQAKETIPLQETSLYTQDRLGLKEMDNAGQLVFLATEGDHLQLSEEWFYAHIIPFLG
The test can be described thus: SPR; Biacore 2000; purified PPT1 amine-coupled to the chip in a saturating amount; varying concentrations of PPT1 as analyte in Hepes buffered saline, pH 5 and pH 7.4; empty flow cell as control; both purified. Conditions: remark: other sources report otherwise.

No constants are given. Whether binding was seen depends on the method and setting. Some binding calls cover weakened binding; strength is not graded here. For some assays here: Sequences can lack the tags named with a protein.

B1: aspartylglucosaminidase (AGA), endogenous in PC12 cells (enzyme, UniProt P30919 24-345)
chain: SNPLPLVVNTWPFKNATEAAWWTLVSGGSALDAVEKGCAMCEKEQCGGTVGFGGSPDEVGETTLDAMIMDGTAMDVGAVGGLRRIKNAIGVARKVLEHTTHTLLVGDSATKFAVSMGFTSEDLSTNTSRALHSDWLSRNCQPNYWRNVIPDPSKYCGPYKPPDFLEQNNRAHKEVDIHSHDTIGMVVIHKTGHTAAGTSTNGLKFKIPGRVGDSPIPGAGAYADDMAGAAAATGDGDTLLRFLPSYQAVEYMRGGDDPARACQKVISRIQKYYPKFFGAVICANVTGSYGAACNRLPTFTQFSFMVYNSLHNQAIEEKVDCM
With B1, the binding entry in test [1] is “binds”.

B2: recombinant PPT1 purified from stably transfected CHO cells, P50897 28-306 (enzyme)
chain: T1 chain
For B2, in test [2], the binding result was “no binding”.
